In this assay the target is human VEGFR2 (KDR) expressed on 293/KDR cells (human) (UniProt P35968). Put plainly: competition flow cytometry on 293/KDR cells, 1 µg/mL Biotin-AB1 plus 20- or 200-fold unlabelled AB1 [panel Unlabelled AB1].

Sequences of proteins named here, by UniProt entry; tags and fusion partners are left off. A change or cut given only in a name is not applied to a line headed by its entry.
UniProt P35968: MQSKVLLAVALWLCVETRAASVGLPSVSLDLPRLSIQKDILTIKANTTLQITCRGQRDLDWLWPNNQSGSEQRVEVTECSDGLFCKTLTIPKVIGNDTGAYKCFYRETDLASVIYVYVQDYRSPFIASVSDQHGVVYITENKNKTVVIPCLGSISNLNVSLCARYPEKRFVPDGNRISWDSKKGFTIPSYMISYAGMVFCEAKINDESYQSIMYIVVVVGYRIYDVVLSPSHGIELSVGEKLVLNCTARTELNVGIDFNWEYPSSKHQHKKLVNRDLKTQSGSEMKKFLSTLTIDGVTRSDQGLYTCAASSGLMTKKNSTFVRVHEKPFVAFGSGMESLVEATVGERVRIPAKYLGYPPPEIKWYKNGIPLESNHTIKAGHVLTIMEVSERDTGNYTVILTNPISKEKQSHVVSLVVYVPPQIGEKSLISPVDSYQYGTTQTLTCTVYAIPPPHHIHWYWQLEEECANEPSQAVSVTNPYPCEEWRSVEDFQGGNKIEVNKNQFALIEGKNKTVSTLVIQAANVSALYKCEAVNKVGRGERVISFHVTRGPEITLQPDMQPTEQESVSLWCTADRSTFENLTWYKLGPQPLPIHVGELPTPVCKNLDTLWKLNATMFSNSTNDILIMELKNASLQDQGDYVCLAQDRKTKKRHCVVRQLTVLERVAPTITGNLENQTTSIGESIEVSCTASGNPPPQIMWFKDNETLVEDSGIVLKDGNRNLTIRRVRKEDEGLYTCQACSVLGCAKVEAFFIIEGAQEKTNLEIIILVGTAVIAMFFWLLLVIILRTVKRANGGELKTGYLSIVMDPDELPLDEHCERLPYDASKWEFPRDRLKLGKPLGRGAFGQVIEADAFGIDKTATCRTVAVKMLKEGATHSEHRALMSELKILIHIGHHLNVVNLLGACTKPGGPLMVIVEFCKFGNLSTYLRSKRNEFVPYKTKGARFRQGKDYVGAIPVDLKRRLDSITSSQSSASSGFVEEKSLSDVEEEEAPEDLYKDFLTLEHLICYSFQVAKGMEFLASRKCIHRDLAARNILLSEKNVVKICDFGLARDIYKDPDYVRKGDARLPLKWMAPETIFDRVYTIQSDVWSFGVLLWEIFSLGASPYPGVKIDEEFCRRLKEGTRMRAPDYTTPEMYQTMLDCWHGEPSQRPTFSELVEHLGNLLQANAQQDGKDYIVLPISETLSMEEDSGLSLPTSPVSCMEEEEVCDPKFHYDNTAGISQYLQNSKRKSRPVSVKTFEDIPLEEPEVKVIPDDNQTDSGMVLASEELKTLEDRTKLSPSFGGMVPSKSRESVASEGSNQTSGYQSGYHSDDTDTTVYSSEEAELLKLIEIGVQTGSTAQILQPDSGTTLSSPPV

No constants are given. Whether binding was seen depends on the method and setting. Some entries that bind do so weakly or less than the wild type.

B1: free AB1 antibody (unlabelled competitor in FIG. 8A) (VHH)
VHH: QVQLVESGGGLVQAGGSLRLSCAASGRAFSSYAMGWFRQAPGKERELVAAISWSDDSTYYANSVKGRFTISRDNAKSAVYLQMNSLKPEDTAVYYCAAHKSLQRPDEYTYWGQGTQVTVSS
For the molecule B1, the binding result is given as “binds”.
